Results published in doi:10.1101/395996.

The chains behind the UniProt entries cited, without tags or fusion partners.
UniProt O00161: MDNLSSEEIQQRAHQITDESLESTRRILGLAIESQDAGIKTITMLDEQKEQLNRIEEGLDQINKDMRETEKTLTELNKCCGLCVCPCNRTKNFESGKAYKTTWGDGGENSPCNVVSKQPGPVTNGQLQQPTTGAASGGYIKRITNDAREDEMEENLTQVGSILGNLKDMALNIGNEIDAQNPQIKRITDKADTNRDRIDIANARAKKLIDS
UniProt Q03135: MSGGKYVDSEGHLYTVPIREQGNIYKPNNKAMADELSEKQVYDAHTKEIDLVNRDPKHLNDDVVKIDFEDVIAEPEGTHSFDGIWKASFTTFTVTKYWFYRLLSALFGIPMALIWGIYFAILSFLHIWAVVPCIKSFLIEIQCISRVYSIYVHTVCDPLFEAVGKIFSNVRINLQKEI
UniProt Q9NVI1: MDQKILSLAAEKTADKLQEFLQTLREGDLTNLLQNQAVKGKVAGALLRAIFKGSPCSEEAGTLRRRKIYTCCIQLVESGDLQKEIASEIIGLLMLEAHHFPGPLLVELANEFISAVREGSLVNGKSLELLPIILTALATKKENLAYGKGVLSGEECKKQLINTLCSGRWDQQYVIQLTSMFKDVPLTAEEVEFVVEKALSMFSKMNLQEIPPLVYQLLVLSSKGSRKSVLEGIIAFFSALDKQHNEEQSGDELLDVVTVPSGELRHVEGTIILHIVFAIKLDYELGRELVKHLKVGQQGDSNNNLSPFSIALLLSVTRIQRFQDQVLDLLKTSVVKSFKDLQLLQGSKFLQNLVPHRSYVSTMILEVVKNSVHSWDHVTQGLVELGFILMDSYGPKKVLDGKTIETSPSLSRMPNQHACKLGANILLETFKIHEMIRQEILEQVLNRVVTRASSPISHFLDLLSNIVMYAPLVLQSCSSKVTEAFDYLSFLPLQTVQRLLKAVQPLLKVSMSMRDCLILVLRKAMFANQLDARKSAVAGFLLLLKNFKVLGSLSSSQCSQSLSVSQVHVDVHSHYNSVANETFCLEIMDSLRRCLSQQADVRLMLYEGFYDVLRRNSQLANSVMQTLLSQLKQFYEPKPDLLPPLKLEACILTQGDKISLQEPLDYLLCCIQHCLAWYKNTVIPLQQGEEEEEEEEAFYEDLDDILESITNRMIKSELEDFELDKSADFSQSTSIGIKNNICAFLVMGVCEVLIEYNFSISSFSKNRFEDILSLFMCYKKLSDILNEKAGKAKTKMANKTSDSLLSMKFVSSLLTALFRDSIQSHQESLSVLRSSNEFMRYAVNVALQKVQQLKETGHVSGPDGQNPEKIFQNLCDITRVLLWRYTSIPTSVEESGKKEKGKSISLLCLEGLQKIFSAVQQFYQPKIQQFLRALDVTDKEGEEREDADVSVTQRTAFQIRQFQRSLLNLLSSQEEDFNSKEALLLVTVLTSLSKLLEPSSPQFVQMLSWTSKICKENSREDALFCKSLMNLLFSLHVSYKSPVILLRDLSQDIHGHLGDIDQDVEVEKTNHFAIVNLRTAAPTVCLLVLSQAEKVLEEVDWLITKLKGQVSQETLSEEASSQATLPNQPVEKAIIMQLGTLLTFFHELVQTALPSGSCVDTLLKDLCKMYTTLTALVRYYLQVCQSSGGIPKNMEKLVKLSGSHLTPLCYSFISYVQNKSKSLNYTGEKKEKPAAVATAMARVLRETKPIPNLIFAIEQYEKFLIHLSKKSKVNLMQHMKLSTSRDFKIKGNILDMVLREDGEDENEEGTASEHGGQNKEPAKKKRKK
UniProt Q15746: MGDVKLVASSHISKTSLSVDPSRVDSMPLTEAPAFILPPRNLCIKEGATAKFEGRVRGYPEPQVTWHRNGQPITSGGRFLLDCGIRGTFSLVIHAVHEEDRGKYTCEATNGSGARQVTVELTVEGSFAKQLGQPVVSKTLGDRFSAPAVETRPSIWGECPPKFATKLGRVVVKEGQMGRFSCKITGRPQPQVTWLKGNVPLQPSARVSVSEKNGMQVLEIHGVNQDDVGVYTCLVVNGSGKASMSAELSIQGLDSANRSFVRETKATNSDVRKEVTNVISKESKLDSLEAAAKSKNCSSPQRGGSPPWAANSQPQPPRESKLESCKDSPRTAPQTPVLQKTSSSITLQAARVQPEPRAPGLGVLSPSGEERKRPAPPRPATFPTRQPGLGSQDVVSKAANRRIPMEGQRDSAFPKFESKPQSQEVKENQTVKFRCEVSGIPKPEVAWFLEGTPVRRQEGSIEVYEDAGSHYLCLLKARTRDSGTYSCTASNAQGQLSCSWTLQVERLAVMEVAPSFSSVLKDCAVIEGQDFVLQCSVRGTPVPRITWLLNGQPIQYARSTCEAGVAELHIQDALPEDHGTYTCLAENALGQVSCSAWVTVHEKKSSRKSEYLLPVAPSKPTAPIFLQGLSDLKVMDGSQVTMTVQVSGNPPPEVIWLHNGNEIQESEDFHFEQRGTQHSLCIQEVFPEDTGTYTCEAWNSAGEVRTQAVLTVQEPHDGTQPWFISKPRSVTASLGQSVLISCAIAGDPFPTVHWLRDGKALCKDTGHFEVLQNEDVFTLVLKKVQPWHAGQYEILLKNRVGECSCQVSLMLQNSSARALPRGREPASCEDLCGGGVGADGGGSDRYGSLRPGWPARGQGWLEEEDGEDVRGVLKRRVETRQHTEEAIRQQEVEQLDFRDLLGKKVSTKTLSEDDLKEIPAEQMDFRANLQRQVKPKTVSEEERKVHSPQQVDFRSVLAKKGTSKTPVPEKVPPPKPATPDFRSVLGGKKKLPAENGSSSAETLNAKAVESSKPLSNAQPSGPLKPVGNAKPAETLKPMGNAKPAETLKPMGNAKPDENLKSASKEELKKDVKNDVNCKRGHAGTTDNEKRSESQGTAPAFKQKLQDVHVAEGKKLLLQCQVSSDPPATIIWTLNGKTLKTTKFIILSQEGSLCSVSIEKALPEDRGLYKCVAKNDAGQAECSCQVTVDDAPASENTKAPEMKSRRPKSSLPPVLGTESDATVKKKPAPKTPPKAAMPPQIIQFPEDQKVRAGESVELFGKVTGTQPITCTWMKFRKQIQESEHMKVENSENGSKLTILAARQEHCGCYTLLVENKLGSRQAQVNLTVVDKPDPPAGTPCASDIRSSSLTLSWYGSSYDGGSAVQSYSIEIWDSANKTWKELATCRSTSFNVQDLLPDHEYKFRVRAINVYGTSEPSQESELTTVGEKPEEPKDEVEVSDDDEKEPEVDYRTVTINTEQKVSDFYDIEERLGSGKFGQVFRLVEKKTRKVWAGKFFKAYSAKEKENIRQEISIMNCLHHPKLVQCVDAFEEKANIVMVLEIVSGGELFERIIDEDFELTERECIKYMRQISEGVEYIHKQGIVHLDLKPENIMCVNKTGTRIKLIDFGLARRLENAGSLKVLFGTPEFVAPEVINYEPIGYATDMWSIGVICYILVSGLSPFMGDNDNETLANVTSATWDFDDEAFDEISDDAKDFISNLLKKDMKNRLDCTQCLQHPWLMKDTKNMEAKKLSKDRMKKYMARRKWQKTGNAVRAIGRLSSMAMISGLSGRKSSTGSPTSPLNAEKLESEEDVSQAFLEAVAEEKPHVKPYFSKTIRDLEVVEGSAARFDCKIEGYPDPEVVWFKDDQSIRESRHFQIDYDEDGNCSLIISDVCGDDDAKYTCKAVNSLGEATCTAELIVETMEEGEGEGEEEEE
UniProt O43707: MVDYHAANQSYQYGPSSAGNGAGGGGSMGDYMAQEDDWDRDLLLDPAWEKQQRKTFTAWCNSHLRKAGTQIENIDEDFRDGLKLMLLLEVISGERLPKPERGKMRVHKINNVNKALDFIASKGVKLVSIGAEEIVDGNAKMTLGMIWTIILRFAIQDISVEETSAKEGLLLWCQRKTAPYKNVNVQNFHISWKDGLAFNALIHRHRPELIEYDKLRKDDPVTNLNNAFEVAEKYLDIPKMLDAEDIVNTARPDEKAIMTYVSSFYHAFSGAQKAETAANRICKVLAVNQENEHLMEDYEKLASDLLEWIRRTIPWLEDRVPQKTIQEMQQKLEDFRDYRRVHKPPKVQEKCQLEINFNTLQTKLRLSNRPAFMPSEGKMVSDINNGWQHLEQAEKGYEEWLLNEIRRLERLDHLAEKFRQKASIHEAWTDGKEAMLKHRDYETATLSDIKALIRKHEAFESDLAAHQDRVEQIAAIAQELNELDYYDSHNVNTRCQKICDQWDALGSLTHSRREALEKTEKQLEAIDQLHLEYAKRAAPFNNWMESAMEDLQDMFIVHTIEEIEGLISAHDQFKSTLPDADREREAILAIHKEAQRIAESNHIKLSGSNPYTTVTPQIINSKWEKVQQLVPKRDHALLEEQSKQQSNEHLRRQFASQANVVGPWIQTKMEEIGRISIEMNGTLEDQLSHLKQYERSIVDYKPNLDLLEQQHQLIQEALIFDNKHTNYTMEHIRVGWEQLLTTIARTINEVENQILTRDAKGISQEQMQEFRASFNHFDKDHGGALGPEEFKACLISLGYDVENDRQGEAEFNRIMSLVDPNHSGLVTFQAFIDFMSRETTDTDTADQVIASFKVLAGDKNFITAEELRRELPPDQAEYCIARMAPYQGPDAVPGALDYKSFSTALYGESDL
UniProt P35580: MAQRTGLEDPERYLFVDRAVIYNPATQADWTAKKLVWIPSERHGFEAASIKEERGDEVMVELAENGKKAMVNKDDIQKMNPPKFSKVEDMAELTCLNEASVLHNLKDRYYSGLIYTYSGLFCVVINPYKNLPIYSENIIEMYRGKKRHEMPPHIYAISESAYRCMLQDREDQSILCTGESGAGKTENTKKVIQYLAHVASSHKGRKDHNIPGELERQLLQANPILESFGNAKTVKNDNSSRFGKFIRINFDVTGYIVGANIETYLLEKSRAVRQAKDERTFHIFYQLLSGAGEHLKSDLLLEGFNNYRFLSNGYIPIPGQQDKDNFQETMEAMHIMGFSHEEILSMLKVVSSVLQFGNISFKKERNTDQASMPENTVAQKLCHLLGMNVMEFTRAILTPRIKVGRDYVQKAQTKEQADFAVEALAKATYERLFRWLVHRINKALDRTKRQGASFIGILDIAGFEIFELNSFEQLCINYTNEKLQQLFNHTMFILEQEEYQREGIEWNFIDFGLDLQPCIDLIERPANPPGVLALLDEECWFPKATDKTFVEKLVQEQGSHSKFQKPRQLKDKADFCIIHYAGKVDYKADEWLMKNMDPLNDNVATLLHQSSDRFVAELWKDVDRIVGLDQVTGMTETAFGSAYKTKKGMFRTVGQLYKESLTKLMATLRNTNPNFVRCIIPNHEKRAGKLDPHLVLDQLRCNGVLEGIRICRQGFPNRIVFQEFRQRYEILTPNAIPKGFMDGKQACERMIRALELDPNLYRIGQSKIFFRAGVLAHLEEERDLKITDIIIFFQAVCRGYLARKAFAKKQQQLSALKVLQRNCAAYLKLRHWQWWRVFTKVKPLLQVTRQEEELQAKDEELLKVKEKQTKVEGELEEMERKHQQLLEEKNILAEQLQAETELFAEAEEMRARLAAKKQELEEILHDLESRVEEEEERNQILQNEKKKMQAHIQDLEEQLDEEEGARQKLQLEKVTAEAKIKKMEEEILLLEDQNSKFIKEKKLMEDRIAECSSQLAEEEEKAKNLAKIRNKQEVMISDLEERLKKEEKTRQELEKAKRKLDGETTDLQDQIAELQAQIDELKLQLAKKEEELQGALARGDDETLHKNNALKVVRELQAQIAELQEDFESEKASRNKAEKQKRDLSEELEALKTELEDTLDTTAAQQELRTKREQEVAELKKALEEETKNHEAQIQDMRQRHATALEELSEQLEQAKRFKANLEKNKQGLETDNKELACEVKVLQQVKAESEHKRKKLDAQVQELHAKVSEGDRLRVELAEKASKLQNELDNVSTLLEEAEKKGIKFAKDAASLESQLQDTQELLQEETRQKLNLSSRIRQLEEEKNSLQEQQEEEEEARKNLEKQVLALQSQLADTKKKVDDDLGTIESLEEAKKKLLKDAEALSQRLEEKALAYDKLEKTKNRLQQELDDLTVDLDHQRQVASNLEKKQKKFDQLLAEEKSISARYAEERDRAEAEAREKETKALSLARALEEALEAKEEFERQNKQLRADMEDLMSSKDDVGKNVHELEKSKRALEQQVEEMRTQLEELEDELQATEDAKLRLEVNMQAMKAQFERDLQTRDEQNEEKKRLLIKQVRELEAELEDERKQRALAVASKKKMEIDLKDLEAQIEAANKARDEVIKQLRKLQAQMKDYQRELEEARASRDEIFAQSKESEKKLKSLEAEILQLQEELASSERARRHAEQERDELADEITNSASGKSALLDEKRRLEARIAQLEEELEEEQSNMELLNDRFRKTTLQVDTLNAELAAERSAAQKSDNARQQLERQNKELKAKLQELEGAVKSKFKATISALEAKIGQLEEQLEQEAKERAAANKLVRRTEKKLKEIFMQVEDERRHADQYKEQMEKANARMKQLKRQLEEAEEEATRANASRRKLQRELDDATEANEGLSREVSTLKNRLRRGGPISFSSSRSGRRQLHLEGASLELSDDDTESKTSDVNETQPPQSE

T1: TAP-SEPT9_i1 (human) (UniProt Q9UHD8)
T1 sequence: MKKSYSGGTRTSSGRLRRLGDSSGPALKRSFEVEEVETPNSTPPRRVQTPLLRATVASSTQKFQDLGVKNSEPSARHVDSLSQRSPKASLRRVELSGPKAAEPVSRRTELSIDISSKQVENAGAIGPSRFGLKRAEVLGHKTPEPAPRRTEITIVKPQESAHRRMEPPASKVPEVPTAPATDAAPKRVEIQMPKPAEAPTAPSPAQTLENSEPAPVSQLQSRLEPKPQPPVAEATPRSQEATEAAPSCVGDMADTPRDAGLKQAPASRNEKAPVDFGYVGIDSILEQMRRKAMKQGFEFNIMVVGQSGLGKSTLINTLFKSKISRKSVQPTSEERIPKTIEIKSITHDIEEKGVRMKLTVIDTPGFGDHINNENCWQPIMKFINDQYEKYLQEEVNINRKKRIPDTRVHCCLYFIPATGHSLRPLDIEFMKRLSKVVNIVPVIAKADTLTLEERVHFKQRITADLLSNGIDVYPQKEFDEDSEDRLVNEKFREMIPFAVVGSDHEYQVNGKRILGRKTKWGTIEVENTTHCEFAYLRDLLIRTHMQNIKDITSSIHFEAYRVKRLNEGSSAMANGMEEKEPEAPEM

B1: SEPT11 (protein, UniProt Q9NVA2 1-429)
chain: MAVAVGRPSNEELRNLSLSGHVGFDSLPDQLVNKSTSQGFCFNILCVGETGIGKSTLMDTLFNTKFESDPATHNEPGVRLKARSYELQESNVRLKLTIVDTVGFGDQINKDDSYKPIVEYIDAQFEAYLQEELKIKRSLFNYHDTRIHACLYFIAPTGHSLKSLDLVTMKKLDSKVNIIPIIAKADTIAKNELHKFKSKIMSELVSNGVQIYQFPTDEETVAEINATMSVHLPFAVVGSTEEVKIGNKMAKARQYPWGVVQVENENHCDFVKLREMLIRVNMEDLREQTHTRHYELYRRCKLEEMGFKDTDPDSKPFSLQETYEAKRNEFLGELQKKEEEMRQMFVMRVKEKEAELKEAEKELHEKFDLLKRTHQEEKKKVEDKKKELEEEVNNFQKKKAAAQLLQSQAQQSGAQQTKKDKDKKNASFT
B2: SEPT8 (protein, UniProt Q92599 1-483)
chain: MAATDLERFSNAEPEPRSLSLGGHVGFDSLPDQLVSKSVTQGFSFNILCVGETGIGKSTLMNTLFNTTFETEEASHHEACVRLRPQTYDLQESNVQLKLTIVDAVGFGDQINKDESYRPIVDYIDAQFENYLQEELKIRRSLFDYHDTRIHVCLYFITPTGHSLKSLDLVTMKKLDSKVNIIPIIAKADTISKSELHKFKIKIMGELVSNGVQIYQFPTDDEAVAEINAVMNAHLPFAVVGSTEEVKVGNKLVRARQYPWGVVQVENENHCDFVKLREMLIRVNMEDLREQTHSRHYELYRRCKLEEMGFQDSDGDSQPFSLQETYEAKRKEFLSELQRKEEEMRQMFVNKVKETELELKEKERELHEKFEHLKRVHQEEKRKVEEKRRELEEETNAFNRRKAAVEALQSQALHATSQQPLRKDKDKKNRSDIGAHQPGMSLSSSKVMMTKASVEPLNCSSWWPAIQCCSCLVRDATWREGFL
B3: RRAS (protein, UniProt P10301 1-218)
chain: MSSGAASGTGRGRPRGGGPGPGDPPPSETHKLVVVGGGGVGKSALTIQFIQSYFVSDYDPTIEDSYTKICSVDGIPARLDILDTAGQEEFGAMREQYMRAGHGFLLVFAINDRQSFNEVGKLFTQILRVKDRDDFPVVLVGNKADLESQRQVPRSEASAFGASHHVAYFEASAKLRLNVDEAFEQLVRAVRKYQEQELPPSPPSAPRKKGGGCPCVLL

target: T1, TAP-SEPT9_i1 (human); experiment: affinity purification with mass spectrometry

Row | binding | Molecule
1 | binds | ZNF185 (from UniProt O15231 1-689)
2 | binds | SNAP23 (from UniProt O00161 1-211)
3 | binds | CAV1 (from UniProt Q03135 1-178)
4 | binds | EPLIN (from UniProt Q9UHB6 1-759)
5 | binds | FANCI (from UniProt Q9NVI1 1-1328)
6 | binds | MYLK (from UniProt Q15746 1-1914)
7 | binds | ACTN4 (from UniProt O43707 1-911)
8 | binds | MYO1B (from UniProt O43795 1-1136)
9 | binds | MYH10 (from UniProt P35580 1-1976)

target: T1, TAP-SEPT9_i1 (human); experiment: affinity purification with mass spectrometry; remark: another data set of the same source

Row | binding | Molecule
10 | binds | B1
11 | binds | B2
12 | binds | B3

Results are given in words; binding and its absence hold for the method and conditions named. In cells and extracts the contact can be indirect. A yes stands for co-enrichment or nearness to the bait. Other partners may have been found.
